Data taken from PubChem BioAssay AID1671190 (National Center for Advancing Translational Sciences (NCATS), 2021).
Several values for one entry are separate records, joined by “and”; a condition that tells them apart may be missing. Equal entries are not always repeated. Screen size: about 580,000 compounds; about 6,100 (1.1%) were called active. Roughly 15% stayed inconclusive and do not appear here. Calls come from the whole dose curve; as a rule, active = well fitted inhibition curve with a large enough effect; inconclusive = small, poorly fitted or top-dose-only effect, or another doubt; inactive = no such curve, though single readings can be large or run the other way. The entries are a selection whose mix differs from that of the whole data set. Entries without a call were filed so in the source.

The chains behind the UniProt entries cited, without tags or fusion partners. Where a name states a change or a piece, a line headed by the entry shows the natural chain unless it says otherwise.
UniProt P18054: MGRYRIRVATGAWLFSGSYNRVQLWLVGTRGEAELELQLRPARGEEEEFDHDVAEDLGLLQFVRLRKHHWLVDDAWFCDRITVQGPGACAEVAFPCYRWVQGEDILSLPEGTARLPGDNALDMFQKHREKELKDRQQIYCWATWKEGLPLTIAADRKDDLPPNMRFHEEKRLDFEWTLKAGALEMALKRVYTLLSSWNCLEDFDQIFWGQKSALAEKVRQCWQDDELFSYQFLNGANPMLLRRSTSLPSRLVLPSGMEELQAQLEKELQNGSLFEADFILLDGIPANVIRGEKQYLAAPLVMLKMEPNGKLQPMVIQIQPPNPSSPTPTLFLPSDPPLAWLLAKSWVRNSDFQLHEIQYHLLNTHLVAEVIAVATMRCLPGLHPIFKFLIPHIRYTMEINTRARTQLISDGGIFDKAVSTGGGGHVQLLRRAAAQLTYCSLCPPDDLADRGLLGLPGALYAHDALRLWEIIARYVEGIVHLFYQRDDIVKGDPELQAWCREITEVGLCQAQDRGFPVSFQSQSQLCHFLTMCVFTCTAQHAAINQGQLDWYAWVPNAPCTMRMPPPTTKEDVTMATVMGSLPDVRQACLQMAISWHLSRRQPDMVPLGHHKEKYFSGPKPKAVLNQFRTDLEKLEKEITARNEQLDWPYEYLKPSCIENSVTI

The compounds below were run against Polyunsaturated fatty acid lipoxygenase ALOX12 (Homo sapiens) (UniProt P18054) (assay: Primary qHTS assay for inhibitors of human arachidonate 12S-lipoxygenase (ALOX12): Round 2). Conditions: purified 12hLO, xylenol orange hydroperoxide absorbance; activity change, negative = inhibition: at 0.00344 µM (top of the series).
How it was run: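 Hydroperoxide product was detected by ferrous iron/xylenol orange as the 573 to 405 nm absorbance ratio. Arachidonic acid at 40 uM (final) was turned over for 30 min at room temperature by 150 nM human 12hLO, pH 7.0 Hepes buffer, after 15 min compound preincubation.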
% is set by controls: 0 for no effect and ±100 for the full control effect; potency is the fitted concentration of half-maximal effect.

Compound	activity change, negative = inhibition	Potency
C=CCn1c(=O)n([C@@H]2O[C@H](CO)[C@@H](O)[C@H]2O)c2nc(N)[nH]c(=O)c21	5.6%	–
CN1CCN(C2=Nc3ccccc3Sc3ccc(Cl)cc32)CC1	1.69%	–
CCC1=C[C@@H]2CN(C1)Cc1c([nH]c3ccccc13)[C@@](C(=O)OC)(c1cc3c(cc1OC)N(C)[C@H]1[C@@](O)(C(=O)OC)[C@H](OC(C)=O)[C@]4(CC)C=CCN5CC[C@]31[C@@H]54)C2	-11.1%	–
Cc1ccc(NS(=O)(=O)c2ccc(C(=O)NNC(=O)c3ccccc3O)cc2)cc1	–	active: 44.7 µM
CS(=O)(=O)Nc1ccc([N+](=O)[O-])cc1Oc1ccccc1	18.8%	–
CCOc1ccccc1C(N)=O	-17.1%	–
COc1cccc(/C(O)=C2\C(=O)C(=O)N(c3ccccn3)C2c2cccc(Br)c2)c1 (stereo not drawn)	–	active: 35.5 µM
NS(=O)(=O)c1ccc(C(=O)O)cc1	29.2%	–
O=C(O)P(=O)(O)O	-50.1%	–
CCN(CC)CCCC(C)Nc1c2ccc(Cl)cc2nc2ccc(OC)cc12 (stereo not drawn)	-13%	–
CN(CCOc1ccc(NS(C)(=O)=O)cc1)CCc1ccc(NS(C)(=O)=O)cc1	-85.6%	–
C#C[C@]1(O)CC[C@H]2[C@@H]3CCc4cc(OC)ccc4[C@H]3CC[C@@]21C	9.54%	–
CC1=C(C)C(=O)C(CCCCC#CCCCC#CCO)=C(C)C1=O	26.4%	–
O=c1c(-c2ccc(O)cc2)coc2cc(O)cc(O)c12	6.99%	–
O=C(O)c1ccc(Nc2ncc3c(n2)-c2ccc(Cl)cc2C(c2c(F)cccc2F)=NC3)cc1	–	active: 15.3 µM
Cc1ccc(S(=O)(=O)NC(=O)NC2CCCCCCC2)cc1	-13.6%	–
COC(=O)[C@H]1[C@H]2C[C@@H]3c4[nH]c5cc(OC)ccc5c4CCN3C[C@H]2C[C@@H](OC(=O)c2cc(OC)c(OC)c(OC)c2)[C@@H]1OC	-23.2%	–
O=C(Nc1cccc2ccccc12)O[C@@H]1CO[C@H]2[C@@H]1OC[C@@H]2NC(=S)Nc1ccc(Cl)cc1	–	active: 35.5 µM
COc1cc([C@@H]2c3cc4c(cc3[C@H](O)[C@H]3COC(=O)[C@H]23)OCO4)cc(OC)c1OC	-0.418%	–
OC1(c2ccc(Cl)cc2)CCNCC1	-10.3%	–

Compound	activity change, negative = inhibition	Potency
O=C(Nc1nnc(C2=COCCO2)o1)c1ccc(Cl)cc1	–	active: 39.8 µM
CC[C@H]1CN2CCc3cc(OC)c(OC)cc3[C@@H]2C[C@@H]1C[C@H]1NCCc2cc(OC)c(OC)cc21	-28.9%	–
CC(C)(CO)[C@@H](O)C(=O)NCCCO	20.7%	–
c1csc(CNc2ccnc(-c3ccoc3)n2)c1	–	active: 12.6 µM
CCN(CC)CCNC(=O)c1ccc(NC(C)=O)cc1	-53.3%	–
CC1(CN2CCC(n3c(=O)[nH]c4ccccc43)CC2)OCc2ccccc2-n2cccc21 (stereo not drawn)	15.8%	–
O=C(O)c1ccc(OCCN2CCCCC2)cc1	61.8%	–
NC1(c2ccc(-c3nc4ccn5c(=O)[nH]nc5c4cc3-c3ccccc3)cc2)CCC1	13.2%	–
CCCCCCCCCCCCCCCCCC(=O)O	-29.4%	–
CC(=O)OC/C=C(C)/C=C/C=C(C)/C=C/C1=C(C)CCCC1(C)C	-13.7%	–
CCOc1cc(NC(C)=O)ccc1C(=O)OC	5.42%	–
COc1ccc(/C(C)=N/NC(=S)Nc2cc(C)ccc2C)cc1	–	active: 44.7 µM
CS(=O)(=O)c1ccc([C@@H](O)[C@@H](CO)NC(=O)C(Cl)Cl)cc1	-24.8%	–
Cc1ccn2c(-c3n[nH]c(=S)n3Cc3ccccc3)c(C)nc2c1	–	active: 8.91 µM
CCCCCCCC/C=C\CCCCCCCC(=O)NCc1ccc(O)c(OC)c1	-4.24%	–
CCn1c(COc2ccc(Cl)cc2)n[nH]c1=S	–	active: 15.8 µM
C[C@@H]1CC(=O)NN=C1c1ccc(NN=C(C#N)C#N)cc1	-14.3% and -52.2%	–
O=c1[nH]c(=O)n([C@H]2CCCO2)cc1F	-25.8%	–
O=C(/C=C/c1ccc(-c2cccc(Cl)c2)o1)c1cc(Cl)ccc1Cl	–	active: 17.8 µM
C#C[C@]1(OC(C)=O)CC[C@H]2[C@@H]3CCC4=C[C@@H](OC(C)=O)CC[C@@H]4[C@H]3CC[C@@]21C	-12.1%	–

Compound	activity change, negative = inhibition	Potency
COC(=O)c1cc(S(N)(=O)=O)ccc1OC	10.1%	–
C#C[C@]1(O)CC[C@H]2[C@@H]3CCC4=CC(=O)CC[C@@H]4[C@H]3CC[C@@]21C	25.8%	–
Nc1cc(C(F)(F)F)ccc1S	13.9%	–
CO[C@@]1(NC(=O)C(C(=O)O)c2ccc(O)cc2)C(=O)N2C(C(=O)O)=C(CSc3nnnn3C)CO[C@@H]21 (stereo partly drawn)	-2.8%	–
COc1ccc(CN(CCN(C)C)c2ccccn2)cc1	24%	–
CC[n+]1c(/C=C2\Sc3ccccc3N2C)ccc2cccc(C)c21	–	active: 44.7 µM
Cc1cc(=O)oc2cc(O)ccc12	22.9%	–
CCc1nc(NCCN2CCOCC2)c2oc3ccccc3c2n1	–	active: 14.1 µM
O=C(O)Cc1ccc2c(c1)C(=O)c1ccccc1CO2	28.3%	–
Cc1oc(=O)oc1COC(=O)[C@@H]1N2C(=O)[C@@H](NC(=O)[C@H](N)c3ccccc3)[C@H]2SC1(C)C	-17.8%	–
Cc1ccc(C(=O)C(=O)O)cc1C	-2.09%	–
CCCCCCCC/C=C/C(=O)O	-14.3%	–
Cc1ccc(S(=O)(=O)NC(=O)NC2CCCC2)cc1	-44.7%	–
FC(F)(F)c1ccccc1-n1ccnc1	17.6%	–
NC(=O)CC[C@@H](N)C(=O)O	-7.91%	–
CO/N=C(\C(=O)N[C@@H]1C(=O)N2C(C(=O)O)=C(CSc3nc(=O)c(O)nn3C)CS[C@H]12)c1csc(N)n1	16.7%	–
C[C@]12CCC(=O)C=C1CC[C@@H]1[C@@H]2[C@@H](O)C[C@@]2(C)[C@H]1CC[C@]2(O)C(=O)COC(=O)CCC(=O)O	-16.8%	–
CC(C)(C)NC[C@H](O)COc1nsnc1N1CCOCC1	-57.2%	–

4 of these compounds in another layout.
Compound,"activity change, negative = inhibition",Potency
CC[n+]1c(/C=C2\Sc3ccccc3N2C)ccc2cccc(C)c21,–,active: 44.7 µM
CCc1nc(NCCN2CCOCC2)c2oc3ccccc3c2n1,–,active: 14.1 µM
CCCCCCCC/C=C/C(=O)O,-14.3%,–
CC(C)(C)NC[C@H](O)COc1nsnc1N1CCOCC1,-57.2%,–
